Not every detail of the peptide structures is certain; ends, links or a residue may be inferred. Where a SMILES comes first, the peptide text is derived from it. Bridges are numbered along the chain shown (N, C = ends).
How the values were obtained:
[1] = Body length after 7-day repeated or continuous subcutaneous administration (Example 2); type: in vivo, rat; details: for Body length (from mouth to end of tail): male SD rat
Procedure: A dosing solution of the CNP derivative (A) or (B) was repeatedly subcutaneously administered at doses of 0.005, 0.015, 0.05, 0.15 and 0.5 mg/kg/day once a day for 7 days to 7-week-old male Crl:CD (SD) rats, or charged in an osmotic pump (MINI-OSMOTIC PUMP Model 2002, manufactured by DURECT Corp., flow rate: 0.5 μL/hr, for 14-day use), implanted in the backs of rats, and continuously subcutaneously administered at these doses for 7 days. Their body lengths (from the mouth to the end of the tail) were measured before the start of administration and 8 days after the start of administration.

[2] = test system: growth plate at the proximal end of the tibia; experiment: Growth plate thickening effect (Example 1), HE-stained specimens of right lower limb knee; type: in vivo, rat; details: for thickening of the growth plate at the proximal end of the tibia: at least 3 days after start of administration
[3] = Concentration in plasma at dissection after 7-day continuous subcutaneous administration (Example 2); type: in vivo, rat; details: suggested from continuous subcutaneous data
[4] = test system: growth plate at the proximal end of the femur; experiment: Thickness of growth plate at proximal end of femur after 7-day continuous subcutaneous administration (Example 2); type: in vivo, rat; details: doses of 0.015 mg/kg/day or higher, 7 days
[5] = Bone growth promoting effect in young rat, two vehicles, 5-week repeated subcutaneous administration (Example 3); type: in vivo; details: 5 weeks
[6] = vehicle 1, 0.5 mg/kg once a day s.c.
[7] = vehicle 2, 0.25 mg/kg once a day s.c.

## CC[C@H](C)[C@@H]1NC(=O)[C@H](CCCNC(=N)N)NC(=O)[C@H](CC(=O)O)NC(=O)[C@H](CC(C)C)NC(=O)[C@H](CCCCN)NC(=O)[C@H](CC(C)C)NC(=O)CNC(=O)[C@H](Cc2ccccc2)NC(=O)[C@@H](NC(=O)CNC(=O)[C@H](CCCCN)NC(=O)[C@H](CO)NC(=O)[C@H](CC(C)C)NC(=O)CN)CSSC[C@@H](C(=O)N[C@H](C(=O)N[C@@H](CCC(N)=O)C(=O)N[C@@H](CCC(N)=O)C(=O)N[C@@H](CCCNC(=N)N)C(=O)N[C@@H](CCCCN)C(=O)N[C@@H](CC(=O)O)C(=O)N[C@@H](CO)C(=O)N[C@@H](CCCCN)C(=O)N[C@@H](CCCCN)C(=O)N2CCC[C@H]2C(=O)N2CCC[C@H]2C(=O)N[C@@H](C)C(=O)N[C@@H](CCCCN)C(=O)N[C@@H](CC(C)C)C(=O)N[C@@H](CCC(N)=O)C(=O)N2CCC[C@H]2C(=O)N[C@@H](CCCNC(=N)N)C(=O)O)C(C)C)NC(=O)CNC(=O)[C@H](CC(C)C)NC(=O)CNC(=O)[C@H](CO)NC(=O)[C@H](CCSC)NC(=O)[C@H](CO)NC(=O)CNC1=O [CNP derivative (A)] (H-GLSKGCFGLKLDRIGSMSGLGCVQQRKDSKKPPAKLQPR-OH; disulfide 6-22; N-terminus and C-terminus assumed)
[1]; 7 days
  bone growth effect per dose, continuous vs repeated subcutaneous administration: stronger under continuous subcutaneous administration conditions
[1]; continuous subcutaneous, 0.005 mg/kg/day, 7 days
  Body length (from mouth to end of tail): 221.0 ± 3.3 ^NS mm
[1]; continuous subcutaneous, 0.015 mg/kg/day, 7 days
  Body length (from mouth to end of tail): 219.6 ± 3.4 ^NS mm
[1]; continuous subcutaneous, 0.05 mg/kg/day, 7 days
  Body length (from mouth to end of tail): 219.8 ± 2.4 ^NS mm
[1]; continuous subcutaneous, 0.15 mg/kg/day, 7 days
  Body length (from mouth to end of tail): 222.8 ± 4.5 mm
[1]; continuous subcutaneous, 0.5 mg/kg/day, 7 days
  Body length (from mouth to end of tail): 226.4 ± 4.6 mm
[1]; continuous subcutaneous, 7-day, doses of 0.15 mg/kg/day or higher
  increase in body length (from the mouth to the end of the tail): significant increase
[1]; repeated subcutaneous administration conditions, 7 days
  effect on body length: no significant effect
[1]; repeated subcutaneous, 0.005 mg/kg/day, 7 days
  Body length (from mouth to end of tail): 209.6 ± 3.2 ^NS mm
[1]; repeated subcutaneous, 0.015 mg/kg/day, 7 days
  Body length (from mouth to end of tail): 212.8 ± 3.8 ^NS mm
[1]; repeated subcutaneous, 0.05 mg/kg/day, 7 days
  Body length (from mouth to end of tail): 211.8 ± 4.0 ^NS mm
[1]; repeated subcutaneous, 0.15 mg/kg/day, 7 days
  Body length (from mouth to end of tail): 215.4 ± 2.4 ^NS mm
[1]; repeated subcutaneous, 0.5 mg/kg/day, 7 days
  Body length (from mouth to end of tail): 210.4 ± 2.6 ^NS mm
[2]; 1 mg/kg/day
  degree of thickening of growth plate, continuous vs once-a-day repeated subcutaneous administration: much higher
[2]; continuous subcutaneous 1 mg/kg/day (osmotic pump)
  thickening of the growth plate at the proximal end of the tibia: observed
[2]; repeated subcutaneous 1 mg/kg/day once a day
  thickening of the growth plate at the proximal end of the tibia: observed
[3]
  concentration in plasma to be kept for a significant bone growth effect: at least 0.05 ng/mL
[4]
  thickening of the growth plate at the proximal end of the femur: Significant thickening
[5]; once a day s.c.
  increase in body length and lower limb tibial length, vehicle 2 (0.25 mg/kg) compared with vehicle 1 (0.5 mg/kg): stronger effect
[5]; [6]
  increase in body length (from the mouth to the end of the tail) vs normal control group: significant increase
  increase in lower limb tibial length vs normal control group: significant increase
[5]; [7]
  increase in body length (from the mouth to the end of the tail) vs normal control group: significant increase
  increase in lower limb tibial length vs normal control group: significant increase

Reference: patent US20200030414A1, “THERAPEUTIC AGENT FOR SHORT STATURE” (Daiichi Sankyo Company, Limited, priority 2017, published 2020)
